# Experimental data published in PubChem BioAssay AID504467 (National Center for Advancing Translational Sciences (NCATS), 2011).
# Among all 330,000 compounds or so, about 7,700 (2.3%) were called active. The inconclusive results got no clear call from the source; some entries with a clear call stand among them for comparison. Calls come from the whole dose curve; as a rule, active = well fitted inhibition curve with a large enough effect; inconclusive = small, poorly fitted or top-dose-only effect, or effect the other way; inactive = flat fitted curve, though single readings scatter. Potencies of inconclusive entries are doubtful fits and often do not repeat.
# Assay: qHTS screen for small molecules that inhibit ELG1-dependent DNA repair in human embryonic kidney (HEK293T) cells expressing luciferase-tagged ELG1; note: nearly all actives have a fitted effect of over 55% in size
# Settings: HEK293T ELG1-luciferase reporter, luminescence, 16 h, DNA damage induced by 5-fluorouridine; activity change, negative = inhibition: at 46.1 µM (top of the series)
# How it was run: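 In this reporter screen, reduction of luminescence relative to DMSO vehicle indicated activity. Compounds and 5-fluorouridine were added together to 2,000 cells per well, incubated for 16 hr at 37 °C, then developed with ONE-Glo.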
# % is set by controls: 0 for no effect and ±100 for the full control effect; potency is the fitted concentration of half-maximal effect.
SMILES,Potency,"activity change, negative = inhibition"
CCCn1c(=O)c2c(nc3n2CCN3Cc2ccco2)n(C)c1=O,"inconclusive: 20.6 µM [inhibitor, single point]",–
N#CC1(NC(=O)COc2ccc(S(=O)(=O)N3CCCC3)cc2[N+](=O)[O-])CCCCC1,"inconclusive: 3.66 µM [inhibitor, single point]",–
CCOC(=O)c1ccc(NC(=S)NC2CCCC2)cc1,"inconclusive: 18.4 µM [activator, single point]",–
O=C(CSc1nc2nn(-c3ccccc3)c(=O)c-2c2n1CCCCC2)Nc1ccc(F)c(F)c1,"inconclusive: 20.6 µM [inhibitor, single point]",–
Cc1ccc(NC(=O)c2ccccc2)s1,"inconclusive: 3.26 µM [activator, partial curve]",–
Cc1nonc1OCCNCc1c(C(=O)N(C)C)nc2ccc(Cl)cn12,"inconclusive: 4.11 µM [inhibitor, single point]",–
S=C(NCc1ccccc1)NCc1cccc(Cl)c1,–,inactive: 11.9%
CC(C)(C)c1ccc(S(=O)(=O)N2CCN(CC(=O)N3CC(=O)Nc4ccccc43)CC2)cc1,–,inactive: -1.92%
O=C(Nc1cccc(C(=O)N2CCN(c3cccc(Cl)c3)CC2)c1)c1ccccc1,"inconclusive: 29.1 µM [inhibitor, single point]",–
Nc1cc(=O)[nH]c(SCC(=O)Nc2cccnc2Cl)n1,"inconclusive: 1.03 µM [inhibitor, full curve]",–
N#Cc1c(N)nc2c(c1-c1ccc(F)cc1)c(=O)nc1sccn12,"inconclusive: 29.1 µM [activator, single point]",–
COc1cc(CNc2ccc3[nH]c(=O)[nH]c3c2)ccc1OCc1ccc(Cl)cc1,"inconclusive: 29.1 µM [activator, single point]",–
CCOC(=O)N1CCN(C(=O)C2CCCN(Cc3nc(-c4ccc(Cl)cc4)oc3C)C2)CC1 (configuration not stated),active: 4.61 µM,–
CCOC(=O)c1sc2nc(C)nc(NCc3ccc(F)cc3)c2c1C,active: 7.3 µM,–
Cc1sc2ncnc(Nc3ccc(N4CCOCC4)cc3)c2c1-c1ccccc1,"inconclusive: 3.66 µM [inhibitor, partial curve, poor fit]",–
CC(C)(C)NCCCOc1ccc(Cl)cc1C(C)(C)C,"inconclusive: 29.1 µM [inhibitor, single point]",–
Cc1cc(=O)[nH]c(N/N=C/c2c(C)oc3ccccc23)n1,–,inactive: 1.36%
Cc1cc(N)n(Cc2cccs2)n1,"inconclusive: 2.06 µM [inhibitor, single point]",–
COc1cccc(NC(=O)COc2ccccc2)c1,"inconclusive: 14.6 µM [activator, partial curve]",–
CCC1CCC(C(=O)NC(C(=O)NCCN2CCOCC2)C(C)C)CC1 (configuration not stated),–,inactive: 6.32%
CCOC(=O)c1ccc(NC(=O)CN2C(=O)CSC(C)C2=O)cc1 (configuration not stated),–,inactive: 25.7%
CCOc1ccc2nc(N(Cc3ccccc3)C(=O)CCNC(C)=O)sc2c1,"inconclusive: 23.1 µM [inhibitor, partial curve, poor fit]",–
S=c1[nH]nc(-c2ccccc2)n1/N=C/c1cccc(Br)c1,–,inactive: -17.5%
COc1cccc2cc(-c3ccnc(N)n3)oc12,"inconclusive: 13 µM [activator, partial curve]",–

# Entries of single compounds, looked up by structure:
# O=C(Nc1cccc(C(=O)N2CCN(c3cccc(Cl)c3)CC2)c1)c1ccccc1 reads Potency: inconclusive: 29.1 µM [inhibitor, single point]
# CCOc1ccc2nc(N(Cc3ccccc3)C(=O)CCNC(C)=O)sc2c1 reads Potency: inconclusive: 23.1 µM [inhibitor, partial curve, poor fit]
# CCOC(=O)c1sc2nc(C)nc(NCc3ccc(F)cc3)c2c1C reads Potency: active: 7.3 µM
# CC(C)(C)c1ccc(S(=O)(=O)N2CCN(CC(=O)N3CC(=O)Nc4ccccc43)CC2)cc1 reads activity change, negative = inhibition: inactive: -1.92%

# (continued)

SMILES,Potency,"activity change, negative = inhibition"
Cc1nonc1OCCNC(=O)C12CC3CC(CC(C3)C1)C2,–,inactive: 2.96%
Cc1ccc(N2C(=O)[C@@H]3Cc4ccccc4CN3C2=O)cc1,"inconclusive: 14.6 µM [activator, partial curve]",–
O=C(/C=C/c1cccc([N+](=O)[O-])c1)NCc1ccccc1,"inconclusive: 16.4 µM [inhibitor, partial curve]",–
COc1ccc(CC(=O)OCC(=O)Nc2ccc(C(=O)Nc3ccc(OC)cc3)cc2)cc1,"inconclusive: 25.9 µM [activator, single point]",–
CN(C)c1ccc(CNc2ccc3c(c2)ncn3C)cc1,"inconclusive: 18.4 µM [activator, single point]",–
O=C(NC1CCCCCC1)c1cc2c(=O)n3ccccc3nc2s1,"inconclusive: 14.6 µM [activator, partial curve]",–
CCCCCCSc1ccc([C@H]2N[C@@](CC(C)C)(C(=O)OC)[C@H]3C(=O)N(C)C(=O)[C@@H]23)cc1OC,"inconclusive: 32.6 µM [inhibitor, partial curve, poor fit]",–
CN(C)C(CNC(=O)c1cc(Br)ccc1Cl)c1ccco1 (configuration not stated),"inconclusive: 14.6 µM [activator, partial curve, poor fit]",–
Cc1ccccc1C(=O)NNC(=O)c1ccncc1,–,inactive: -4.81%
CCCn1c(N)c(N2CCCCC2)c(=O)n(CC(=O)Nc2ccccc2C)c1=O,"inconclusive: 18.4 µM [activator, partial curve, poor fit]",–
COc1ccc(-c2nnc(N)s2)cc1,"inconclusive: 16.4 µM [activator, partial curve]",–
COCC(COS(N)(=O)=O)Cc1ccccc1 (configuration not stated),–,inactive: -8.47%
CCc1ccc(-c2cn(C3CCCCC3)c(=S)[nH]2)cc1,"inconclusive: 0.651 µM [activator, partial curve, poor fit]",–
CCN(CC)S(=O)(=O)c1cc(C(=O)Nc2ccccc2[N+](=O)[O-])ccc1Cl,"inconclusive: 3.66 µM [activator, full curve]",–
COc1cc(C2c3sc(=O)[nH]c3SC3C(=O)N(c4ccc(Br)cc4)C(=O)C32)ccc1O (configuration not stated),–,inactive: 12.1%
Cc1ccc(N=Cc2ccc[nH]2)c(O)c1,"inconclusive: 25.9 µM [activator, single point]",–
COc1ccc(/C=N\NC(=O)c2cc(O)c(O)c(O)c2)cc1COc1ccc(C(=O)OCC(C)C)cc1,"inconclusive: 20.6 µM [inhibitor, single point]",–
COc1ccc(NC(=O)N(CCO)Cc2cc3c(C)cc(C)cc3[nH]c2=O)cc1,"inconclusive: 16.4 µM [inhibitor, partial curve]",–
CCCc1[nH]n(-c2nc3ccccc3s2)c(=O)c1C=NCCCN(CC)CC,"inconclusive: 16.4 µM [activator, partial curve]",–
CN(C)c1ccc(/C=N/N2CCN(c3ccccn3)CC2)cc1,"inconclusive: 18.3 µM [activator, partial curve]",–
Nc1nc(SCC(=O)Nc2ccc(Cl)cc2)[nH]c(=O)c1-c1ccccc1,–,inactive: -17.4%
CN(Cc1ccccc1)C(=O)c1ccccc1NC(=O)C1CC1,–,inactive: 7.32%
CCOc1ccc(NC(=O)c2c[nH]n3c(=O)cc(C4CCN(C(=O)OC(C)(C)C)CC4)nc23)cc1,"inconclusive: 23.1 µM [inhibitor, single point]",–
O=C(O)c1ccc(NC2=C(n3nnc4ccccc43)C(=O)c3ccccc3C2=O)cc1,"inconclusive: 20.6 µM [inhibitor, single point]",–

SMILES,Potency,"activity change, negative = inhibition"
COc1c2ccc(C(=O)NCCCCc3ccccc3)cc2nn1C,–,inactive: 7.82%
COc1ccc(NS(=O)(=O)c2ccc(C)c(C(=O)NC3CCN(Cc4ccccc4)CC3)c2)cc1,–,inactive: -19.4%
COc1ccccc1N1CCN(C(=O)CSc2nnc(-c3ccoc3C)o2)CC1,"inconclusive: 20.6 µM [inhibitor, partial curve, poor fit]",–
CCOC(=O)c1sc(NC(=O)CN2C(=O)NC3(CC(C)CC(C)(C)C3)C2=O)c(C(=O)OCC)c1C (configuration not stated),–,inactive: -28.4%
Cc1cccc(-c2nsc(SCC(=O)Nc3cc(C)on3)n2)c1,"inconclusive: 16.4 µM [activator, partial curve]",–
Cn1c(SCc2nc(-c3ccccc3)no2)nnc1-c1cccs1,–,inactive: -0.327%
Cc1cc(OCCCn2ccnc2)cc(C(C)C)c1,–,inactive: 18.3%
O=C(NCCc1ccccc1)c1cccnc1N1CCCCCC1,–,inactive: -22.8%
C[C@H](CO)N1C[C@H](C)[C@@H](CN(C)S(=O)(=O)c2cccs2)Oc2ccc(NC(=O)Nc3ccccc3)cc2C1=O,active: 23.1 µM,–
CC(=O)Nc1ccc(S(=O)(=O)N2CCC(NC(=O)C(Cc3cccc(F)c3)NC(C)=O)CC2)cc1 (configuration not stated),–,inactive: 10.8%
Cc1noc(C)c1CSCC(=O)Nc1nc2ccc(S(C)(=O)=O)cc2s1,–,inactive: 0.29%
CCCC(=O)Nc1nc2ccc(NC(=O)c3ccc(Br)o3)cc2s1,"inconclusive: 8.2 µM [inhibitor, single point]",–
O=C(CN1CCN(C/C=C/c2ccccc2)CC1)NCc1ccc(Cl)cc1,"inconclusive: 29.1 µM [inhibitor, single point]",–
CC(C)Cn1c(C(C)NC(=O)Cc2ccccc2)nc2ccccc21 (configuration not stated),–,inactive: 4.22%
OC(CNCCc1ccc(Cl)cc1)COc1ccc2ccccc2c1 (configuration not stated),–,inactive: -9.43%
Cc1cc(CN(C)C(=O)c2cc(COc3ccc4ncccc4c3)on2)on1,"inconclusive: 2.06 µM [inhibitor, partial curve]",–
CCOC(=O)c1sc2nc(C)nc(N3CCCCC3C)c2c1C (configuration not stated),"inconclusive: 23.1 µM [inhibitor, partial curve, poor fit]",–
CCCn1c(=O)c(C(=O)Nc2ncccc2C)c(O)c2ccccc21,–,inactive: -5.64%
Cc1nn(-c2ccccc2)c(C)c1C(=O)Oc1ccccc1,"inconclusive: 20.6 µM [activator, partial curve]",–
COc1ccccc1NC(=O)Nc1ccc(Cc2ccncc2)cc1,"inconclusive: 29.1 µM [activator, single point]",–
COc1ccc2c(c1)O[C@@]1(CCCC[C@@H]1C)CC2=O,–,inactive: 27.6%
O=C(Nc1ccccc1)N(C1=NCCCCS1)c1ccccc1,"inconclusive: 20.6 µM [activator, single point]",–
O=C(C(Sc1ccccc1)c1ccccc1)N1CCN(c2ccccc2F)CC1 (configuration not stated),–,inactive: -1.78%
Cc1ccc(C(=O)Nc2ccn(Cc3ccc(F)cc3)n2)o1,"inconclusive: 18.4 µM [activator, partial curve]",–
